Library screen at single concentrations

Protein sequences, listed by entry. Tags and fused reporters are not part of them. Residues count along the entry.
UniProt A4I591, 1-473: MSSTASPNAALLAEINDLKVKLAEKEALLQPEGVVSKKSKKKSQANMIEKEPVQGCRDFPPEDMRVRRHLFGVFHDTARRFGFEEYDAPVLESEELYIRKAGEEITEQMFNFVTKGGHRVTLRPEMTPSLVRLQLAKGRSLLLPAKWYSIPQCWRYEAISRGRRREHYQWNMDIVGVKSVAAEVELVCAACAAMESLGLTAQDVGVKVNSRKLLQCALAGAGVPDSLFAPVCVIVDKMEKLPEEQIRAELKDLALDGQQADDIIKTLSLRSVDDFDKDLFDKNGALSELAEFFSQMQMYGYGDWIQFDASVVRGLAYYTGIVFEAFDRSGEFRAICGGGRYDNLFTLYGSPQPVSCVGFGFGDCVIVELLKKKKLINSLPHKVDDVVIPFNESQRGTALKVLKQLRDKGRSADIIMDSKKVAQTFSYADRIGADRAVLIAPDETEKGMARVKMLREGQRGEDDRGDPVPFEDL
UniProt P9WNZ1, whole entry: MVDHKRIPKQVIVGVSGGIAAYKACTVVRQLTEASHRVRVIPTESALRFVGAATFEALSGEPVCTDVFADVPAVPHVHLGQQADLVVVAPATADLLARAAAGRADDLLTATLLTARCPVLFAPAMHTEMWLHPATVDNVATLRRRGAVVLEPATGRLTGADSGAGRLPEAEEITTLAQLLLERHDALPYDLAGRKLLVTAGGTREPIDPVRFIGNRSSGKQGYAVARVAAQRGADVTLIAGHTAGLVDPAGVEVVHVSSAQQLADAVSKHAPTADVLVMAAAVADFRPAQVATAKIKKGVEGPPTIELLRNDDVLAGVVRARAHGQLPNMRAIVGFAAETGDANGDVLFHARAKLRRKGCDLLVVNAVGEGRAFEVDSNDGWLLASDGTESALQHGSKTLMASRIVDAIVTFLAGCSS

LiHisRS: 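Histidine-tRNA ligase, Leishmania infantum (UniProt A4I591). Enzyme assay of histidyl-tRNA synthetase; the read-out is not stated. Tested at 30 µM. Direction is inferred from retests: higher values go with stronger inhibition. The assay is labelled LdHisRS but filed under L. infantum. About 69,000 compounds were tested under these conditions; 0.6% (about 410) showed 50% or more at least once.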
Leishmania in macrophages: 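Cell assay of Leishmania donovani living inside macrophages; the read-out is not stated. Concentration: 30 µM. Higher reads as stronger inhibition (inferred: compounds with an IC50 in retests scored well above the rest). About 69,000 compounds were tested under these conditions; 1.5% (about 1,000) showed 50% or more at least once.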
CoaBC: 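Coenzyme A biosynthesis protein CoaBC, Mycobacterium tuberculosis (UniProt P9WNZ1). Enzyme assay of CoaBC with a phosphate dye (Biomol Green) read at 650 nm. Concentration: 30 µM. Direction is inferred from only a few compounds that gave an IC50; most scored high, so higher reads as stronger inhibition. Most strong results did not repeat in a second test. Size under these conditions: about 67,000 compounds, about 40 of them at 50% or above in at least one test.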

Each number is a percent effect as filed. The record does not define 0% and 100%; most values in the screen are far below 50% and negative numbers occur (in some assays of this library far below -100). This is an unselected part of the compounds tested. Two or more numbers in one place are separate tests of the same structure; such repeats can differ widely.

CN(C)C(=O)N1C[C@@H](C(=O)NCc2ccco2)C[C@H]2OCC[C@H]21 gave LiHisRS: 0%; CoaBC: -0.8631%.
O=C(c1ccco1)N1CC[C@@H]2O[C@@H](COCCN3CCCC3)CC[C@@H]21 gave LiHisRS: 4.587%; CoaBC: -4.26%.
CCC(CC)C(=O)NC1CCCc2nc(N3CCOCC3)ncc21 (stereo not drawn) gave LiHisRS: 3.125%; Leishmania in macrophages: 11.78%; CoaBC: 0.2451%.
CCc1ncnc(N2CCCC(c3cc(C(N)=O)[nH]n3)C2)c1F (stereo not drawn) gave LiHisRS: 21.43%; Leishmania in macrophages: -6.575%; CoaBC: 0.6148%.
CS(=O)(=O)N1CCCC12CCN(Cc1nccs1)C2.O=C(O)C(F)(F)F (stereo not drawn) gave Leishmania in macrophages: 4.808% and -49.79%.
O=C(CN1CC(c2ccccc2)CC1=O)NCc1cc2n(n1)CCNC2 (stereo not drawn) gave LiHisRS: 7.292%; Leishmania in macrophages: 29.23%; CoaBC: 2.679%.
Cc1ccc(N2CC[C@@H]3CN(Cc4cc[nH]n4)C[C@@H]3C2)nn1 gave LiHisRS: 0%; CoaBC: 3.87%.
CC(C)c1nc(C2CCCN2Cc2ccon2)no1 (stereo not drawn) gave LiHisRS: 13.91%; Leishmania in macrophages: 24.67%; CoaBC: 5.806%.
CC(C)CNC(=O)CSC1CCc2ccccc2NC1=O (stereo not drawn) gave LiHisRS: 18.18%; Leishmania in macrophages: -3.836%; CoaBC: 0.5109%.
O=C(O)C(F)(F)F.O=C(O)C(F)(F)F.[H][C@@]12CCCO[C@]1([H])[C@H](NC(=O)c1cccnc1)CN(c1ncccn1)C2 gave Leishmania in macrophages: -32.18%.
CC(C)CNC(=O)C1(Cc2ccccc2-c2cccs2)CCNC1 (stereo not drawn) gave LiHisRS: 5.263%; Leishmania in macrophages: 56.87% and 45.64%; CoaBC: 11.68%.
COc1cc(C)cc(-c2nc3c([nH]2)CCNC3)c1OC gave LiHisRS: 17.95%; Leishmania in macrophages: -6.894%; CoaBC: -13.08%.
CCOCc1ncn2c1CN(S(=O)(=O)c1ccc(F)cc1)CC2 gave LiHisRS: -4.11%; Leishmania in macrophages: -17.16%; CoaBC: -1.142%.
CO[C@H]1CCN(Cc2c(C)noc2C)[C@@H]2CN(Cc3cccnc3)C[C@H]12 gave LiHisRS: 22.64%; CoaBC: 4.39%.
Cc1nn(C)cc1-c1cc(C(=O)NCC(C)(C)c2ccccc2F)n[nH]1 gave LiHisRS: 1.439%; Leishmania in macrophages: -25.84%; CoaBC: -3.349%.
Cc1ccc(C(=O)NC2CCCN(CC(N)=O)C2)c(=O)[nH]1 (stereo not drawn) gave LiHisRS: 12.94%; Leishmania in macrophages: 35.39%; CoaBC: 6.149%.
O=C(O)C(F)(F)F.O=C(O)C(F)(F)F.OCCN1CC2(CCN(c3ccccc3)C2)C1 gave Leishmania in macrophages: 23.96%.
O=C(c1ccccc1OCC1CC1)N1CCCC(n2ccnc2)C1 (stereo not drawn) gave LiHisRS: 10.81%; Leishmania in macrophages: 5.028%; CoaBC: -5.744%.
CCOC(=O)CCC(=O)N1CC(c2nc(Cc3ccccc3)no2)C1 gave LiHisRS: 9.917%; Leishmania in macrophages: 40.22%; CoaBC: 0.3745%.
COC(=O)CCN1CCC(C(=O)c2cc(F)ccc2F)CC1 gave LiHisRS: 16%; Leishmania in macrophages: 30.85%; CoaBC: 1.707%.
COc1cccc2c1OCCCN(Cc1c[nH]nc1C(=O)O)C2 gave LiHisRS: 14.47%; Leishmania in macrophages: 26.31%; CoaBC: 4.516%.
CC(C)CN1CC(C(=O)NCCc2c[nH]cn2)CC1=O (stereo not drawn) gave LiHisRS: 11.11%; Leishmania in macrophages: 15.02%; CoaBC: 2.981%.
O=C(c1cnc(O)cc1O)N1CCCC(CCc2ccccc2F)C1 (stereo not drawn) gave LiHisRS: 2.797%; Leishmania in macrophages: 7.106%; CoaBC: 7.901%.
CC(C)(C)n1cc(C(=O)N2CCCN(Cc3cccs3)CC2)cn1 gave LiHisRS: 21.6%; Leishmania in macrophages: -5.892%; CoaBC: 1.064%.
O=C(O)C(F)(F)F.O=C(O)C(F)(F)F.[H][C@@]12COC[C@]1(COCc1ccncc1)CN(Cc1cccc(OC)c1)C2 gave Leishmania in macrophages: 32.94%.
CN(C)C(=O)COCc1cncc2c1CCN(Cc1ccccn1)C2.O=C(O)C(F)(F)F.O=C(O)C(F)(F)F gave Leishmania in macrophages: 16.55%.
Cc1ccn(-c2ccc(NCc3ccnc(N4CCCCC4)c3)nn2)n1 gave LiHisRS: 30.67%; Leishmania in macrophages: 27.45%; CoaBC: 11.57%.
Br.O=C(CN(C1=NCCCCC1)c1ccc(Cl)cc1)c1ccccc1 gave Leishmania in macrophages: 3.016% and 6.883%.
Cc1ccc(F)c(S(=O)(=O)N2CCCC2c2ccncc2)c1 (stereo not drawn) gave LiHisRS: 18.09%; Leishmania in macrophages: 35.35%; CoaBC: 5.387%.
CC(C)OCCC1CCCCN1S(C)(=O)=O (stereo not drawn) gave LiHisRS: 6.667%; Leishmania in macrophages: 21.16%; CoaBC: 3.19%.
Cn1cc(CN2CCCC3(CCCCN3S(C)(=O)=O)C2)cn1.O=C(O)C(F)(F)F (stereo not drawn) gave Leishmania in macrophages: 22.75%.
CCN(Cc1ccco1)C(=O)NCC(C)N1CCc2sccc2C1 (stereo not drawn) gave LiHisRS: 7.143%; Leishmania in macrophages: 30.01%; CoaBC: -0.578%.

2 of the entries, repeated:

| structure | LiHisRS | Leishmania in macrophages | CoaBC |
|---|---|---|---|
| `CCOC(=O)CCC(=O)N1CC(c2nc(Cc3ccccc3)no2)C1` | 9.917 | 40.22 | 0.3745 |
| `CC(C)CN1CC(C(=O)NCCc2c[nH]cn2)CC1=O` (stereo not drawn) | 11.11 | 15.02 | 2.981 |

From ChEMBL document CHEMBL3988442, “University of Dundee, Small-Polar-MMV Screening Library” (2021).